The experiment has as its target T1, C-reactive protein, P02741.
T1 chain: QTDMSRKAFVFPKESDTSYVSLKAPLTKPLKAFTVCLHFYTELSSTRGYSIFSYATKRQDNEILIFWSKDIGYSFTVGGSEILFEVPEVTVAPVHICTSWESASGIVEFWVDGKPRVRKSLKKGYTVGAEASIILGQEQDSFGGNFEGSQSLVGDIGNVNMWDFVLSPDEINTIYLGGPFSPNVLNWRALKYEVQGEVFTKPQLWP
Briefly: native MS; modified TIMS-Q-SID-TOF; 200 mM ammonium acetate, with or without charge reduction by 20% (v/v) TEAA; 0.7 to 3 uM per complex; single charge state isolated and fragmented by surface-induced dissociation; both purified. The settings on record: remark: other sources report otherwise.

Results are given in words; binding and its absence hold for the method and conditions named. Some entries that bind do so weakly or less than the wild type.

B1: C-reactive protein, P02741 19-224 (protein)
chain: T1 chain
With B1, the binding result is given as “binds”.

The record behind these values is PMC13054468 (Analytical chemistry, 2025).
